Assay [1] has as its target T1, Voltage-dependent L-type calcium channel subunit alpha-1C (Cavia porcellus, UniProt O35505). Briefly: (§1) Inhibition of L-type calcium channel measured using whole-cell patch clamp in guinea pig ventricular myocytes. Type of assay: functional, cell-based, Heart, Ventricular myocyte. On the set-up: ca sol conc 1.8 mM, temp 37 C.
Assay [2] has as its target T1, Voltage-dependent L-type calcium channel subunit alpha-1C. Described as §1. It is filed as functional, cell-based, Heart, Ventricular myocyte. Also on record: ca sol conc 0 mM, temp 35 C.

By UniProt entry, the sequences of proteins in these tests, tags left out.
UniProt O35505, whole entry: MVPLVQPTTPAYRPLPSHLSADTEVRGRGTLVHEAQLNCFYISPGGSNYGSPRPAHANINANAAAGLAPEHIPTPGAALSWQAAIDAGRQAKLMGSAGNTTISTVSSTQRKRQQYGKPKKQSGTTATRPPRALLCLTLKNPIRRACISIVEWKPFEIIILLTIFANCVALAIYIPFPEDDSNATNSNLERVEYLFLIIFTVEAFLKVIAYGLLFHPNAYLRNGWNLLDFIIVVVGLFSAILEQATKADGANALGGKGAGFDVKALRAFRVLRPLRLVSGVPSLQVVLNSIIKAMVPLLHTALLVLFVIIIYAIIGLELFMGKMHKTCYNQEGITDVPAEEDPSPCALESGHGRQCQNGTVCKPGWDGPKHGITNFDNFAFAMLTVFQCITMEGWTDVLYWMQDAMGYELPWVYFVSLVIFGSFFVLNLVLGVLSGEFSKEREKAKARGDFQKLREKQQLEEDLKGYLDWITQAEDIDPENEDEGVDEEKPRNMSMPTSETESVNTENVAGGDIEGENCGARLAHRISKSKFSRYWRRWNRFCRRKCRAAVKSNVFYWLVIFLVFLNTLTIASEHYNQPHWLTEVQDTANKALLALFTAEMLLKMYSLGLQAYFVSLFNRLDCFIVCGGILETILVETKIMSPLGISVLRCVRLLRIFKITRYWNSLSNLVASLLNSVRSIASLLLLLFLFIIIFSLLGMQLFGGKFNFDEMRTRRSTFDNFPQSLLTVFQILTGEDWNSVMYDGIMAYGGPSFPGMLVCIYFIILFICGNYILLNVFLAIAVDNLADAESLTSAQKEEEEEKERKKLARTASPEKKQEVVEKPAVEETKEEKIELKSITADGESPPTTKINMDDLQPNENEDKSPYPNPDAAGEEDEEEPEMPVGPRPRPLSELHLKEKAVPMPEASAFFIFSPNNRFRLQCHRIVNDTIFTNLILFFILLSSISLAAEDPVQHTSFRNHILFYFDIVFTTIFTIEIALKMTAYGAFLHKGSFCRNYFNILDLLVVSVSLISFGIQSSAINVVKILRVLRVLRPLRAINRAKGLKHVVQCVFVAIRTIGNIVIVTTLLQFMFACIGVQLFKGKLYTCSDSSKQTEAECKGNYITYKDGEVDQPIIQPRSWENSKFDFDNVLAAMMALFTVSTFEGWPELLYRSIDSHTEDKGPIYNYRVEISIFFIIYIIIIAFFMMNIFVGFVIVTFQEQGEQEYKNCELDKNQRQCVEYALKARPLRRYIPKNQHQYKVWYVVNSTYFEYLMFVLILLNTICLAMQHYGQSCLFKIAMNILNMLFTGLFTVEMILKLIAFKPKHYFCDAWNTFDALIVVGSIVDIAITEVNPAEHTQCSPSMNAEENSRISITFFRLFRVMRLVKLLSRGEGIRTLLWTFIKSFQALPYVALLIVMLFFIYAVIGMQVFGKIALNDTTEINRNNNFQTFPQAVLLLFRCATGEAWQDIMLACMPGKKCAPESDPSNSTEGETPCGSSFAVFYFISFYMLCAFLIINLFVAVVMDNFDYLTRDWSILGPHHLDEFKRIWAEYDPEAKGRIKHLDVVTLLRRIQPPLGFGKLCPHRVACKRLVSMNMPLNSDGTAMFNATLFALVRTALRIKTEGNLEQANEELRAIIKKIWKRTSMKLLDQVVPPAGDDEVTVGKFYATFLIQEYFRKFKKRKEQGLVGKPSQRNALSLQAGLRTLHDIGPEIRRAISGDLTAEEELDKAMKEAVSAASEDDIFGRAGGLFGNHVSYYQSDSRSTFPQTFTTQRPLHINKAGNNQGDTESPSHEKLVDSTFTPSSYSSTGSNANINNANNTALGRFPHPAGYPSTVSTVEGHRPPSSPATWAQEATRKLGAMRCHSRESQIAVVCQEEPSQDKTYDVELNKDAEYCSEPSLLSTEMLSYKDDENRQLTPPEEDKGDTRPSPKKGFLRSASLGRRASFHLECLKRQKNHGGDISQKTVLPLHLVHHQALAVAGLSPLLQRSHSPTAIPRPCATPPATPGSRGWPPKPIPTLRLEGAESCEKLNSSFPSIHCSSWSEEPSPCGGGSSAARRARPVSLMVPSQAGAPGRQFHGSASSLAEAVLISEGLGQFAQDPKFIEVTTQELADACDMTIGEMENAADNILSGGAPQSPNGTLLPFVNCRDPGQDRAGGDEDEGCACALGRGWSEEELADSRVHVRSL

For one compound, IC50 results are on record in ChEMBL document CHEMBL3436046, “Predictive model for L-type channel inhibition: multichannel block in QT prolongation risk assessment” (J Appl Toxicol, 2012).

pIC50: −log10 of the molar value.

What is called pIC50 is the negative decadic logarithm of the IC50, by convention in mol/L. Consider `COC(=O)C1=C(C)NC(C)=C(C(=O)OC)C1c1ccccc1[N+](=O)[O-]` [NIFEDIPINE], for which the pIC50 in assay [1] was 6.59; in assay [2], 6.52.
